# Measured values as given in the supplement of paper PMC8728848.
# The list shows a part of the results.
# B1: PX14343F-bfa-562-20-562 (Bacteroides fragilis) (protein)
# chain: CDDFLDSFPQDTVTNENFWKSKEDADKVLVDIYASLLPKDAIFFDEAMSDNAYLVWDWWGGAQQVANGSYTTSGEIPTNRWNGSYEVIRKCWFLLEGIEKIEDISEQDKNKIIGETYFMLAYNYYVLTSYFGDVPLVTKTLAIPESKQLVRTPKAEVVDYAINKLKEAAVMLEGLSQEKGRVTADACRFLIARMYLYNGDYSNVLETVKLLEGKYQLYREGDTPYEDLFSGVAENSCEVILSVVCDKRVGEIYTSHGGNGIMLLKGITGEDPYRGVTPSGSLVDAYPMADGRLIHEAGSSYDPKKPYEGRDPRFYQSIVYPTGQIKYLDVETGTVKERLYDPEDPTTVPEHQYNYSQPSATGYMWNKYIDYSVYAMNSVWDCTNDIIVFRYADVLLMKAEALLQTKGESAKEEVCNLIDQLRDRCSCGRVHRENYNSKDELMELLKNERRIELANEGLRYMDLIRWKDAEKNTIVTGVGLTGQMYGAYMRKDGVGKDDKTVDVDNTPRRYIETRYFNASKGYLFPIPQKERDLNPNLTQNPNW
# Legend:
# Assay in all cases: glycan array binding signal (z-score within array); higher = stronger binding
# Conditions in all cases: glycan notation: IUPAC condensed, linker removed
# Fuc(a1-3)GlcNAc = target: Fuc(a1-3)GlcNAc
# Method in brief: (§1)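 Columns mapping to the same glycan were averaged after glycan names were converted to IUPAC-condensed notation. The data come from 3228 arrays in the Consortium for Functional Glycomics database, limited to those with an available protein sequence. Binding is reported as a within-array Z-score averaged across arrays of one protein sequence and across linkers.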
# [1] = target: Fuc(a1-3)[Gal(b1-4)]Glc6S
# Method in brief: as §1
# [2] = target: Fuc(a1-3)[Gal(b1-4)]GlcNAc
# Method in brief: as §1
# [3] = target: Fuc(a1-3)[Gal(b1-4)]GlcNAc(b1-2)Man
# Method in brief: as §1
# [4] = target: Fuc(a1-3)[Gal(b1-4)]GlcNAc(b1-2)Man(a1-3)[Fuc(a1-3)[Gal(b1-4)]GlcNAc(b1-2)Man(a1-6)]Man(b1-4)GlcNAc(b1-4)GlcNAc
# Method in brief: as §1
# [5] = target: Fuc(a1-3)[Gal(b1-4)]GlcNAc(b1-2)Man(a1-3)[Fuc(a1-3)[Gal(b1-4)]GlcNAc(b1-2)Man(a1-6)]Man(b1-4)GlcNAc(b1-4)[Fuc(a1-6)]GlcNAc
# Method in brief: as §1
# [6] = target: Fuc(a1-3)[Gal(b1-4)]GlcNAc(b1-3)Gal(b1-3)[Fuc(a1-4)]GlcNAc
# Method in brief: as §1
# [7] = target: Fuc(a1-3)[Gal(b1-4)]GlcNAc(b1-3)Gal(b1-4)[Fuc(a1-3)]GlcNAc
# Method in brief: as §1
# [8] = target: Fuc(a1-3)[Gal(b1-4)]GlcNAc(b1-3)Gal(b1-4)[Fuc(a1-3)]GlcNAc(b1-3)Gal(b1-4)[Fuc(a1-3)]GlcNAc
# Method in brief: as §1
# [9] = target: Fuc(a1-3)[Gal(b1-4)]GlcNAc(b1-3)GalNAc
# Method in brief: as §1
# [10] = target: Fuc(a1-3)[Gal(b1-4)]GlcNAc(b1-6)GalNAc
# Method in brief: as §1
# [11] = target: Fuc(a1-3)[Gal(b1-4)]GlcNAc(b1-6)[Gal(b1-3)GlcNAc(b1-3)]Gal(b1-4)Glc
# Method in brief: as §1
# [12] = target: Fuc(a1-3)[Gal(b1-4)]GlcNAc6S
# Method in brief: as §1
# [13] = target: Fuc(a1-3)[Gal3S(b1-4)]Glc
# Method in brief: as §1
# [14] = target: Fuc(a1-3)[Gal3S(b1-4)]GlcNAc
# Method in brief: as §1
# [15] = target: Fuc(a1-3)[Gal3S(b1-4)]GlcNAc6S
# Method in brief: as §1
# [16] = target: Fuc(a1-3)[GalNAc(b1-4)]GlcNAc
# Method in brief: as §1
# [17] = target: Fuc(a1-3)[GalNAc(b1-4)]GlcNAc6S
# Method in brief: as §1
# Fuc(a1-4)GlcNAc = target: Fuc(a1-4)GlcNAc
# Method in brief: as §1
# Fuc(b1-3)GlcNAc = target: Fuc(b1-3)GlcNAc
# Method in brief: as §1
# Gal(a1-2)Gal = target: Gal(a1-2)Gal
# Method in brief: as §1
# Gal(a1-3)Gal = target: Gal(a1-3)Gal
# Method in brief: as §1
# Gal(a1-3)Gal(b1-3)GlcNAc = target: Gal(a1-3)Gal(b1-3)GlcNAc
# Method in brief: as §1
# [18] = target: Gal(a1-3)Gal(b1-3)GlcNAc(b1-2)Man
# Method in brief: as §1
# [19] = target: Gal(a1-3)Gal(b1-3)GlcNAc(b1-2)Man(a1-3)[Gal(a1-3)Gal(b1-3)GlcNAc(b1-2)Man(a1-6)]Man(b1-4)GlcNAc(b1-4)GlcNAc
# Method in brief: as §1
# [20] = target: Gal(a1-3)Gal(b1-3)GlcNAc(b1-3)GalNAc
# Method in brief: as §1
# [21] = target: Gal(a1-3)Gal(b1-3)GlcNAc(b1-6)GalNAc
# Method in brief: as §1
# [22] = target: Gal(a1-3)Gal(b1-3)[Fuc(a1-4)]GlcNAc(b1-2)Man(a1-3)[Gal(a1-3)Gal(b1-3)[Fuc(a1-4)]GlcNAc(b1-2)Man(a1-6)]Man(b1-4)GlcNAc(b1-4)GlcNAc
# Method in brief: as §1
# Gal(a1-3)Gal(b1-4)Glc = target: Gal(a1-3)Gal(b1-4)Glc
# Method in brief: as §1
# Gal(a1-3)Gal(b1-4)GlcNAc = target: Gal(a1-3)Gal(b1-4)GlcNAc
# Method in brief: as §1
binder,measurement,setting,value
B1,glycan array binding signal (z-score),Fuc(a1-3)GlcNAc,-0.159
same,glycan array binding signal (z-score),[1],-0.078
same,glycan array binding signal (z-score),[2],0.458
same,glycan array binding signal (z-score),[3],0.356
same,glycan array binding signal (z-score),[4],1.15
same,glycan array binding signal (z-score),[5],-0.568
same,glycan array binding signal (z-score),[6],-0.917
same,glycan array binding signal (z-score),[7],-0.249
same,glycan array binding signal (z-score),[8],-0.023
same,glycan array binding signal (z-score),[9],0.113
same,glycan array binding signal (z-score),[10],-0.242
same,glycan array binding signal (z-score),[11],0.493
same,glycan array binding signal (z-score),[12],-0.142
same,glycan array binding signal (z-score),[13],-0.368
same,glycan array binding signal (z-score),[14],0.011
same,glycan array binding signal (z-score),[15],-0.355
same,glycan array binding signal (z-score),[16],0.476
same,glycan array binding signal (z-score),[17],-0.676
same,glycan array binding signal (z-score),Fuc(a1-4)GlcNAc,-0.18
same,glycan array binding signal (z-score),Fuc(b1-3)GlcNAc,-0.725
same,glycan array binding signal (z-score),Gal(a1-2)Gal,0.192
same,glycan array binding signal (z-score),Gal(a1-3)Gal,-0.081
same,glycan array binding signal (z-score),Gal(a1-3)Gal(b1-3)GlcNAc,-0.521
same,glycan array binding signal (z-score),[18],0.587
same,glycan array binding signal (z-score),[19],0.857
same,glycan array binding signal (z-score),[20],-0.716
same,glycan array binding signal (z-score),[21],0.014
same,glycan array binding signal (z-score),[22],0.795
same,glycan array binding signal (z-score),Gal(a1-3)Gal(b1-4)Glc,0.151
same,glycan array binding signal (z-score),Gal(a1-3)Gal(b1-4)GlcNAc,0.337

# An excerpt from further up, for reference:
binder,measurement,setting,value
B1,glycan array binding signal (z-score),[20],-0.716
same,glycan array binding signal (z-score),[21],0.014
